The exact form of at least one protein or probe is not confirmed.
Legend:
GmSAUR (Glycine max) [1] = assay: competition with a labelled probe; settings: 50- and 100-fold molar excess of unlabeled DNA reduces the complex; not given; EMSA as previously described (Sun et al., 2023); recombinant protein; protein details: GST
GmSAUR (Glycine max) [2] = assay: EMSA; settings: not given; EMSA as previously described (Sun et al., 2023); recombinant protein; protein details: GST

Chains of the proteins cited; added tags and fusions are not shown. A line that says so, or that is headed by a name, gives the form on record, which may keep a tag or linker.
GmSAUR (Glycine max), one chain, as listed by the source: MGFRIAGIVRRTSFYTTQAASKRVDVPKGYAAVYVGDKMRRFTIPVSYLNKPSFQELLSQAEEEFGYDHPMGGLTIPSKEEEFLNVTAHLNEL

Sequence | binding result (GmSAUR (Glycine max) [1]) | binding result (GmSAUR (Glycine max) [2])
GACTAAGTTGAAGATGCAGTTGCTATACAACCTCTCATTCAAGTAC (double strand) [GmMYB176 promoter unlabeled competitor] | binds | –
GACTAAGTTGAAGATGCAGTTGCTATACAACCTCTCATTCAAGTAC (double strand) [GmMYB176 promoter probe] | – | binds

From publication PMC13190601
